Data published in paper PMC6420652.

By UniProt entry, the sequences of proteins in these tests, tags left out. Where a name states a change or a piece, a line headed by the entry shows the natural chain unless it says otherwise.
UniProt O14977: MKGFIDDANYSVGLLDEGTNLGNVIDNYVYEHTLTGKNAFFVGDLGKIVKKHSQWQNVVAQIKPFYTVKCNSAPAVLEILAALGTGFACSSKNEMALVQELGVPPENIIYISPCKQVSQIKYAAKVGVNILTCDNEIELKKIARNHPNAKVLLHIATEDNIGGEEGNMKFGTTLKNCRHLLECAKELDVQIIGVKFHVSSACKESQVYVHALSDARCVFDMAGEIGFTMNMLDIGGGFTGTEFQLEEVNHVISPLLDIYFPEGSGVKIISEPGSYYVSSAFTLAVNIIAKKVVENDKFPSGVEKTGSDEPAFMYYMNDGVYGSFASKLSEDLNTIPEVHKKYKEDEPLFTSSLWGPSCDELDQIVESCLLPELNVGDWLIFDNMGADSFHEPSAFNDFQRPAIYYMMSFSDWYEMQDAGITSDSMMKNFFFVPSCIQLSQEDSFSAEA
UniProt P54368: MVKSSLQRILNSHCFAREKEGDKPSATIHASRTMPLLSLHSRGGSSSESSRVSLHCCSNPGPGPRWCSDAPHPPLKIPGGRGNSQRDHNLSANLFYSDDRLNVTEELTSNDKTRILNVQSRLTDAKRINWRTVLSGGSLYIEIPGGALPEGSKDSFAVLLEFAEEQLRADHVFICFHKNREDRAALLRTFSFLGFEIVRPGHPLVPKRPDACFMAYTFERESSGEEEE

How the values were obtained:
[1] = target: Clover-AZIN S329Y (human) (UniProt O14977); assay: FRET or BRET; Clover fusion protein constant at 50 nM, mRuby2 fusion of antizyme titrated; TBS pH 7.4 + 0.15% Tween-20, 1 hour at room temperature; plate reader, fit of donor quenching; both purified
[2] = target: Clover-AZIN A325N (human) (UniProt O14977); assay: as above

With “antizyme-mRuby2 (antizyme with a C-terminal mRuby2 tag) (from UniProt P54368 1-228)” the binding [1] was “binds” and the binding [2] was “binds”.

These are yes or no findings as the source states them, for the method shown. Binding calls can cover weak binding; strength is not graded here.
